Source: publication PMC5996148
This is one part of the list. For some assays here: The exact form of the protein is not confirmed.

Sequences of proteins named here, by UniProt entry; tags and fusion partners are left off. A change or cut given only in a name is not applied to a line headed by its entry.
UniProt P09471: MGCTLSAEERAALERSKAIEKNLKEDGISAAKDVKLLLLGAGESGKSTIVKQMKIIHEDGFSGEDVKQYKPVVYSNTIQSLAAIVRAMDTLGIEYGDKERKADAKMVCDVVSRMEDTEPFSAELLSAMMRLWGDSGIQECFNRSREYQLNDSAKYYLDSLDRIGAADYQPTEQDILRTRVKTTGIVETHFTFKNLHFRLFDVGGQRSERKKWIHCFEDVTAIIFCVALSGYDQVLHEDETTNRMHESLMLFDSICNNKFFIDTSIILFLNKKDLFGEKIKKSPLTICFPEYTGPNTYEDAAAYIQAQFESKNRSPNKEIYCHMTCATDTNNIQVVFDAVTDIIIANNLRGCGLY

Key:
Assay in all cases: protein microarray (ProtoArray v5.0), streptavidin-Alexa Fluor 647
Details in all cases: 3'-biotin; 20 mM Tris (pH 7.5), 5 mM MgCl2, 100 mM KCl, 0.1% Tween-20, A/T-rich and random oligonucleotide blockers; temperature not stated; high values mean tight binding
GNAO1 = GNAO1 (UniProt P09471)
GNG13 (human) = tested on: GNG13 (human)
GNG4 (human) = tested on: GNG4 (human)
GNGT1 (human) = tested on: GNGT1 (human)
GNMT (human) = tested on: GNMT (human)
GNPTAB (human) = tested on: GNPTAB (human)
GOLPH2 (human) = tested on: GOLPH2 (human)
GOSR1 (human) = tested on: GOSR1 (human)
GPD1 (human) = tested on: GPD1 (human)
[1] = tested on: GPI transamidase component PIG-S (human)
GPLD1 (human) = tested on: GPLD1 (human)
GPR108 (human) = tested on: GPR108 (human)
GPRC5C (human) = tested on: GPRC5C (human)
GPSM3 (human) = tested on: GPSM3 (human)
GPX1 (human) = tested on: GPX1 (human)
GSTA1 (human) = tested on: GSTA1 (human)
GSTM3 (human) = tested on: GSTM3 (human)
GSTZ1 (human) = tested on: GSTZ1 (human)
GTF2E1 (human) = tested on: GTF2E1 (human)
GTF2H5 (human) = tested on: GTF2H5 (human)

**Q.** What does the source list for “GGGGACAGGGGTATGGGGAGGGG [G4-3 biotinylated (CtG)]”?
**A.** binding signal (GNAO1): -0.301 z-score; binding signal (GNG13 (human)): -0.344 z-score; binding signal (GNG4 (human)): -0.327 z-score; binding signal (GNGT1 (human)): -0.326 z-score; binding signal (GNMT (human)): -0.321 z-score; binding signal (GNPTAB (human)): -0.305 z-score; binding signal (GOLPH2 (human)): -0.305 z-score; binding signal (GOSR1 (human)): -0.328 z-score; binding signal (GPD1 (human)): -0.341 z-score; binding signal [1]: -0.321 z-score; binding signal (GPLD1 (human)): -0.316 z-score; binding signal (GPR108 (human)): -0.315 z-score; binding signal (GPRC5C (human)): -0.318 z-score; binding signal (GPSM3 (human)): -0.339 z-score; binding signal (GPX1 (human)): -0.319 z-score; binding signal (GSTA1 (human)): -0.325 z-score; binding signal (GSTM3 (human)): -0.341 z-score; binding signal (GSTZ1 (human)): -0.311 z-score; binding signal (GTF2E1 (human)): -0.302 z-score; binding signal (GTF2H5 (human)): -0.336 z-score
